These results are taken from publication PMC7819943, “Rice protein-binding microarrays: a tool to detect cis-acting elements near promoter regions in rice”.

The chains behind the UniProt entries cited, without tags or fusion partners.
UniProt Q0JBA9, entry or part of it: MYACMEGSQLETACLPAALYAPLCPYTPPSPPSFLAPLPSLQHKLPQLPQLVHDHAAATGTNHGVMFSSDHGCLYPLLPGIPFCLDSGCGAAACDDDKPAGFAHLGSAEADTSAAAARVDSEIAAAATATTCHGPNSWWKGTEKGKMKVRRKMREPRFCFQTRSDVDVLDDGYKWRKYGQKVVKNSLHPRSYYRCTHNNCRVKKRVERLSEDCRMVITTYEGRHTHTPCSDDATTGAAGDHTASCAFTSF

The other results are listed elsewhere or left out.

The target in the assay is OsWRKY34 (Oryza sativa, UniProt Q0JBA9 1-250). Description: protein-binding microarray (RPBM); PBS, 2% BSA, 51.3 ng/ul salmon testes DNA, 50 uM zinc acetate, 200 nM TF, 25 C, 1 h; high values mean tight binding. The following applies: protein: recombinant; tags: N-terminal polyhistidine and DsRed monomer fusion (pET32a); label: CyDye5-dUTP incorporated in the synthesized complementary strand; 3' TTTTT single-stranded linker to array surface; dsDNA, one strand shown. In outline: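 Binding signal is defined as the fluorescence intensity of each feature in arbitrary units, read on an Axon 4000B scanner. Transcription factors with N-terminal polyhistidine and DsRed fusions came from E. coli BL21-CodonPlus and were purified on Ni–NTA. They were incubated at 200 nM for 1 h at 25 °C on a custom Agilent array that had been made double-stranded with Cy5-dUTP, with 50 µM zinc acetate present, and the array was washed.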
On to “CTTGTGTTGTCTTCCGGTGCTTCTTCCATAATACAAAAACCGGAGTCACCTAGTGCAG”, for which the binding signal was 9120 fluorescence intensity (a.u.). The value for “TAATAGGATTAAACTCTAATTTTTCACATCCCTACTTCTTCGGAGTCACCTAGTGCAG” was 8600 fluorescence intensity (a.u.); that for “CATTTGCCGCGCCTTATCCACCTCACCAAAACCCCACTTCCGGAGTCACCTAGTGCAG” was 8290 fluorescence intensity (a.u.). Under “CTGATTCGAACGCAGCCATAGTCACTCTTTCACTCTCACTCGGAGTCACCTAGTGCAG” stands 11000 fluorescence intensity (a.u.). For “AACTTGAGGTCCTGGCATTGACCTTTCTAAATTTTGACTGCGGAGTCACCTAGTGCAG”, the binding signal was 8160 fluorescence intensity (a.u.).

In the case of “TTTACATCCTGCGTTCAAGGCCCTTCGCGTTAATACTATCCGGAGTCACCTAGTGCAG”, the binding signal is 9550 fluorescence intensity (a.u.). Under “ATTTACTATGCAATGCAGGTACATTTGTTTTACTTCACAACGGAGTCACCTAGTGCAG” stands 8660 fluorescence intensity (a.u.).

For the sequence “AGCTGGCCGCCTTCTTGTCCTTGCCGTCCTCGTTCACCAGCGGAGTCACCTAGTGCAG”, the binding signal was 8280 fluorescence intensity (a.u.). The value for “ACACCACACCAACTAGTCCAACCAATCCATCTATTTCTCTCGGAGTCACCTAGTGCAG” was 9910 fluorescence intensity (a.u.); that for “AATTTGGATTAATCCTTCGCGTCACATTTTCTACATCTCACGGAGTCACCTAGTGCAG” was 9980 fluorescence intensity (a.u.). With “TTTGCCTATGTGGGTTTGAAATTTCTCATCAAATTGGTTCCGGAGTCACCTAGTGCAG”, the binding signal was 8780 fluorescence intensity (a.u.). As to “CTTTTTTACTGCGGTACATGTGTTCCCATGATGTTTCAATCGGAGTCACCTAGTGCAG”, the binding signal was 8240 fluorescence intensity (a.u.). Take “CCTCATGACCTACCGCCATCACTCGAGTCATTTAGCTTCTCGGAGTCACCTAGTGCAG”: the binding signal is 13600 fluorescence intensity (a.u.). As for “TATGCAGGTGTTGGGAGGAGGTGGCTTGATTTTTTCTGCTCGGAGTCACCTAGTGCAG”, the binding signal was 8530 fluorescence intensity (a.u.). The value for “TTATCAATATCTCTCTCTCGGCGCGTATAGCCGTCGCGCGCGGAGTCACCTAGTGCAG” was 8690 fluorescence intensity (a.u.). The value for “CATTTTATATAATTTTGACTATTTGCTAATCTTGTCTATACGGAGTCACCTAGTGCAG” was 9240 fluorescence intensity (a.u.); that for “CTCTTCCTCTCTCTATCTGTTCGTGGCTGGATCGGACGGACGGAGTCACCTAGTGCAG” was 8290 fluorescence intensity (a.u.). Under “AGGAGTACTCAGCTTTCTTTCTGCATGCTCTGTTTCTTCGCGGAGTCACCTAGTGCAG” stands 9460 fluorescence intensity (a.u.). For “AAATCCGCCGCCGAATTCCCCACCCGTCGCGTCCAAAATCCGGAGTCACCTAGTGCAG”, the binding signal is 8950 fluorescence intensity (a.u.).

“GAAGTCAGCCCTCATGATGTGGATCCGTTTTGCATTGTAACGGAGTCACCTAGTGCAG”: the binding signal was 8310 fluorescence intensity (a.u.).

“GTCGTCTCGTCTTCGTTATCTCCTCCCTGTGTCGCGGCGGCGGAGTCACCTAGTGCAG”: the binding signal was 9570 fluorescence intensity (a.u.). As for “TATATATATATATATATATATATATATATAACTACAATAGCGGAGTCACCTAGTGCAG”, the binding signal is 10200 fluorescence intensity (a.u.).

As for “TGGATATGATATTCTTCCTTGGCTTATCCGTTCAGTTGCCCGGAGTCACCTAGTGCAG”, the binding signal was 9020 fluorescence intensity (a.u.). The value for “CACTGTGTGCTACTCCAACTGCTAACCAAGCCACACCTTACGGAGTCACCTAGTGCAG” was 8250 fluorescence intensity (a.u.). Under “CTCCTCGCCCCGCATCAGCTTCGTCCGTCGCGGGCTCGCGCGGAGTCACCTAGTGCAG” stands 9720 fluorescence intensity (a.u.); under “TGTGATGCACTTCTCTCCAGTAATCTAGTGGTAATTTTCACGGAGTCACCTAGTGCAG”, 8020 fluorescence intensity (a.u.); under “GGTGTGTTTTCTTGCATGACGGGTGTGTTTTCTCCTTAAACGGAGTCACCTAGTGCAG”, 11600 fluorescence intensity (a.u.). Under “GATTATCAGTGAAGCTTTTACCAAGATTGTGAAAATTTTCCGGAGTCACCTAGTGCAG” stands 8200 fluorescence intensity (a.u.); under “TTATCTTAATCTTGTCATCAATTCGTTTGTCTAAACTTCCCGGAGTCACCTAGTGCAG”, 11400 fluorescence intensity (a.u.). For “TCTTTACCACTTCTTCTTAACTTCTACTCTATTGTTTTTTCGGAGTCACCTAGTGCAG”, the binding signal was 9670 fluorescence intensity (a.u.). With “AACCTAAGCGCTTTTCCCTTTCGGGAAATTCCGCGCGCTCCGGAGTCACCTAGTGCAG”, the binding signal is 8060 fluorescence intensity (a.u.). Take “GGTGGTGCGGCCTCTCTCGCCTTTGATTTACCCTTTCGCGCGGAGTCACCTAGTGCAG”: the binding signal was 9720 fluorescence intensity (a.u.). The value for “AAAATTTTTTTTGTCGGAATATATCCATGTGTGGTCTTGTCGGAGTCACCTAGTGCAG” was 8220 fluorescence intensity (a.u.); that for “CATCATTCGTCGTCAGGTTCTTCCGCCATTGGAGCTCCATCGGAGTCACCTAGTGCAG” was 9290 fluorescence intensity (a.u.). Regarding “CACGCTCCCTATTTTAGTACCACCTCGCGAACCGGAACGCCGGAGTCACCTAGTGCAG”, the binding signal was 9160 fluorescence intensity (a.u.). The value for “TTAGTAATTACTCCACTGCGCCATCGATTACAATAATTTTCGGAGTCACCTAGTGCAG” was 11300 fluorescence intensity (a.u.).

Consider “GACCTGATCAACACCAGACGGGTTAACTACGTCTACATTTCGGAGTCACCTAGTGCAG”, for which the binding signal was 8210 fluorescence intensity (a.u.).

Take “ATAGCAGCTCATCTCCATCTTCTTGCAAACCATCAGTAGTCGGAGTCACCTAGTGCAG”: the binding signal is 9370 fluorescence intensity (a.u.). As for “CACTCTTTTTGTTCTTCTACCTTTTCCTTTTGCTCTTCCCCGGAGTCACCTAGTGCAG”, the binding signal was 9130 fluorescence intensity (a.u.). “CCTCTTATAGCCCACCGCCACCGGCCGCCGCGCGCCCATGCGGAGTCACCTAGTGCAG”: the binding signal was 8050 fluorescence intensity (a.u.).

With “CTCTCTCTAGCTCTAGCTCTAGCTCGTCGCCGCCATGAACCGGAGTCACCTAGTGCAG”, the binding signal is 8320 fluorescence intensity (a.u.). The value for “GATTTCCCCTTCTCTGCTGCAACCTGCATTGTTCTTTCCTCGGAGTCACCTAGTGCAG” was 10000 fluorescence intensity (a.u.).
